Experimental findings from doi:10.1101/2021.12.23.473878 are described below.

Results are given in words; binding and its absence hold for the method and conditions named. In cells and extracts the contact can be indirect. Some results given as binding are weak or reduced against the parent protein; the word gives no strength. For some of these results: Where a sequence is shown, tags or fusion partners need not be part of it.

Holding throughout (test): co-IP
In assay [1] the target is T1, TACAN mutant K160X (human) (UniProt Q9BXJ8).
T1 sequence: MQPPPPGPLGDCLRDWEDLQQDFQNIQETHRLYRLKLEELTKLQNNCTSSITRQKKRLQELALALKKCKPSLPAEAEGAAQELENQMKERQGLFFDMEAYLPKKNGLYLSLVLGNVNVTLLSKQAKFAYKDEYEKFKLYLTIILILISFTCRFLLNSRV

The target in assay [2] is T2, TACAN mutant L296-D343 (human) (UniProt Q9BXJ8).
T2 sequence: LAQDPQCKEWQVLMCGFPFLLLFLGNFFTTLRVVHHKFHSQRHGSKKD

Assay [3] has as its target T3, TACAN N-terminus (K135X) (human) (UniProt Q9BXJ8).
T3 sequence: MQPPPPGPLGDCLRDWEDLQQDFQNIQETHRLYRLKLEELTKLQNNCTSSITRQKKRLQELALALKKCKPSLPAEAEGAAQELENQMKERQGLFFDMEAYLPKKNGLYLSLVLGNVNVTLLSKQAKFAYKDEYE

Assay [4] concerns the target T4, endogenous TACAN of IMCD cells (not stated (endogenous in IMCD cells)) (UniProt Q8C1E7).
T4 sequence: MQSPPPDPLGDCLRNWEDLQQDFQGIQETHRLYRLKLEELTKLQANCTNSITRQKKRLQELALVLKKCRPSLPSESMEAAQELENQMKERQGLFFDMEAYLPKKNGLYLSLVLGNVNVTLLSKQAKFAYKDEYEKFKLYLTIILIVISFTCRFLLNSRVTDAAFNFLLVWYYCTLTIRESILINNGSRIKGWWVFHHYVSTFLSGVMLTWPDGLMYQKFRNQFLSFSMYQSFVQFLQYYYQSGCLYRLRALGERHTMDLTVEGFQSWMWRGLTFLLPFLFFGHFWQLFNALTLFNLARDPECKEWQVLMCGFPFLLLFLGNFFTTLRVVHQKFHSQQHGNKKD

B1: PKD2 fragment N580-L700 (domain or fragment, UniProt Q13563 580-700)
chain: NRTMSQLSTTMSRCAKDLFGFAIMFFIIFLAYAQLAYLVFGTQVDDFSTFQECIFTQFRIILGDINFAEIEEANRVLGPIYFTTFVFFMFFILLNMFLAIINDTYSEVKSDLAQQKAEMEL
As for B1, in assay [1], the binding result is “binds”.

B2: PKD2 truncation mutant A594X (domain or fragment, UniProt Q13563 1-593)
chain: MVNSSRVQPQQPGDAKRPPAPRAPDPGRLMAGCAAVGASLAAPGGLCEQRGLEIEMQRIRQAAARDPPAGAAASPSPPLSSCSRQAWSRDNPGFEAEEEEEEVEGEEGGMVVEMDVEWRPGSRRSAASSAVSSVGARSRGLGGYHGAGHPSGRRRRREDQGPPCPSPVGGGDPLHRHLPLEGQPPRVAWAERLVRGLRGLWGTRLMEESSTNREKYLKSVLRELVTYLLFLIVLCILTYGMMSSNVYYYTRMMSQLFLDTPVSKTEKTNFKTLSSMEDFWKFTEGSLLDGLYWKMQPSNQTEADNRSFIFYENLLLGVPRIRQLRVRNGSCSIPQDLRDEIKECYDVYSVSSEDRAPFGPRNGTAWIYTSEKDLNGSSHWGIIATYSGAGYYLDLSRTREETAAQVASLKKNVWLDRGTRATFIDFSVYNANINLFCVVRLLVEFPATGGVIPSWQFQPLKLIRYVTTFDFFLAACEIIFCFFIFYYVVEEILEIRIHKLHYFRSFWNCLDVVIVVLSVVAIGINIYRTSNVEVLLQFLEDQNTFPNFEHLAYWQIQFNNIAAVTVFFVWIKLFKFINFNRTMSQLSTTMSRC
As for B2, in assay [2], the binding result was “binds”.

B3: human PKD2 gain-of-function mutant F604P (HA-F604P), in Xenopus oocytes (protein, UniProt Q13563 1-968)
chain: MVNSSRVQPQQPGDAKRPPAPRAPDPGRLMAGCAAVGASLAAPGGLCEQRGLEIEMQRIRQAAARDPPAGAAASPSPPLSSCSRQAWSRDNPGFEAEEEEEEVEGEEGGMVVEMDVEWRPGSRRSAASSAVSSVGARSRGLGGYHGAGHPSGRRRRREDQGPPCPSPVGGGDPLHRHLPLEGQPPRVAWAERLVRGLRGLWGTRLMEESSTNREKYLKSVLRELVTYLLFLIVLCILTYGMMSSNVYYYTRMMSQLFLDTPVSKTEKTNFKTLSSMEDFWKFTEGSLLDGLYWKMQPSNQTEADNRSFIFYENLLLGVPRIRQLRVRNGSCSIPQDLRDEIKECYDVYSVSSEDRAPFGPRNGTAWIYTSEKDLNGSSHWGIIATYSGAGYYLDLSRTREETAAQVASLKKNVWLDRGTRATFIDFSVYNANINLFCVVRLLVEFPATGGVIPSWQFQPLKLIRYVTTFDFFLAACEIIFCFFIFYYVVEEILEIRIHKLHYFRSFWNCLDVVIVVLSVVAIGINIYRTSNVEVLLQFLEDQNTFPNFEHLAYWQIQFNNIAAVTVFFVWIKLFKFINFNRTMSQLSTTMSRCAKDLFGFAIMPFIIFLAYAQLAYLVFGTQVDDFSTFQECIFTQFRIILGDINFAEIEEANRVLGPIYFTTFVFFMFFILLNMFLAIINDTYSEVKSDLAQQKAEMELSDLIRKGYHKALVKLKLKKNTVDDISESLRQGGGKLNFDELRQDLKGKGHTDAEIEAIFTKYDQDGDQELTEHEHQQMRDDLEKEREDLDLDHSSLPRPMSSRSFPRSLDDSEEDDDEDSGHSSRRRGSISSGVSYEEFQVLVRRVDRMEHSIGSIVSKIDAVIVKLEIMERAKLKRREVLGRLLDGVAEDERLGRDSEIHREQMERLVREELERWESDDAASQISHGLGTPVGLNGQPRPRSSRPSSSQSTEGMEGAGGNGSSNVHV
For B3, the binding result in assay [3] is listed as “no binding”.

B4: endogenous PKD2 of IMCD cells (protein, UniProt O35245 1-966)
chain: MVNSRRVQPQPPGDAGRSPAPRASGPGRLVAGGAGLAVPGGLGEQRGLEIEMERIRQAAARDPPAGASASPSPPLSSCSRQAWSRDNPGFEAEEDDDDDEVEGEEGGMVVEMDVEWRPGSRRSASSSAVSSVGARGRGLGSYRGAAHLSGRRRRLEDQGAQCPSPAGGGDPLHRHLPLEGQPPRVAWAERLVRGLRGLWGTRLMEESNANREKYLKSVLRELVTYLFFLVVLCILTYGMMSSNVYYYTRTLSQLFIDTPVSKTEKTNFKTLSSMEDFWKFTEGSFLDGLYWKAQTSNHTQADNRSFIFYENLLLGVPRLRQLRVRNGSCSIPQDLRDEIKECYDVYSVSSEDRAPFGPRNGTAWMYTSEKELNGSSHWGIIASYSGAGYYLDLSRTREETAAQLAGLRRNFWLDRGTRAAFIDFSVYNANINLFCVVRLLAEFPATGGVVPSWQFQPVKLIRYVTAFDFFLAACEIIFCFFIIYYVVEEILEIRIHRLSYFRSFWNCLDVVIVVLSVVAMVINIYRMSNAEGLLQFLEDQNSFPNFEHVAYWQIQFNNISAVMVFLVWIKLFKFINFNRTMSQLSTTMSRCAKDLFGFTIMFSIIFLAYAQLAYLVFGTQVDDFSTFQECIFTQFRIILGDINFAEIEEANRVLGPLYFTTFVFFMFFILLNMFLAIINDSYSEVKSDLAQQKAEMELSDLIRKGCQKALVKLKLKRNTVDAISESLRQGGGKLNFDELRQDLKGKGHTDAEIEAIFTKYDQDGDQELTEREHQQMRDDLEKEREDLDLEHSSLPRPMSSRSFPRSLDDSEEEDDEDSGHSSRRRGSISSGVSYEEFQVLVRRVDRMEHSIGSIVSKIDAVIVKLEIMERAKLKRREVLGRLLDGVAEDARLGRDSEIHREQMERLVREELERWESDDAASQTGHGVSTQVGLGGQPHPRNPRPPSSQSAEGLEGGGGNGSANVHA
For B4, the binding entry in assay [4] was “binds”.
